Measured values as given in PMC4672336.
Results are given in words; binding and its absence hold for the method and conditions named. In cells and extracts the contact can be indirect. Some results given as binding are weak or reduced against the parent protein; the word gives no strength.

Protein sequences, listed by entry. Tags and fused reporters are not part of them.
UniProt P32519: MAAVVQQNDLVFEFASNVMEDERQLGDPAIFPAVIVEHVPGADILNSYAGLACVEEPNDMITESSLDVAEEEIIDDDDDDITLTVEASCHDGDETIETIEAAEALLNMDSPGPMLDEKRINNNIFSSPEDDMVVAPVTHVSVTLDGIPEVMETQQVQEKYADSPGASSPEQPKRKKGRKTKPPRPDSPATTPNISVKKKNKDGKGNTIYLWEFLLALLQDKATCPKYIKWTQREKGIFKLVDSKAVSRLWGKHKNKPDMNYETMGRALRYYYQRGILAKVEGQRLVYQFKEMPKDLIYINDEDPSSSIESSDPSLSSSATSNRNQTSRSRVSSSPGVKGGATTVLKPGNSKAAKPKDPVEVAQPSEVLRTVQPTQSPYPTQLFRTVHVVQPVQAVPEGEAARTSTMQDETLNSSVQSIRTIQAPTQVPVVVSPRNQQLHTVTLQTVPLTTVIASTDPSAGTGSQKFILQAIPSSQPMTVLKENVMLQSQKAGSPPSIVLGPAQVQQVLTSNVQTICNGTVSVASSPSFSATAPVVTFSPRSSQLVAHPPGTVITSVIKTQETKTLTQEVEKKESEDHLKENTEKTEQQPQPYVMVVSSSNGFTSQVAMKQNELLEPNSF

Biological target: E74-Like Factor 1 (ELF-1), endogenous (human (endogenous in HeLa S3)) (UniProt P32519)
Test: co-IP; HeLa S3 cells mock or IFN-β treated for 5 h; co-immunoprecipitation with ELF-1 or RB1 antibodies or normal mouse serum; Western blot

B1: RB1, endogenous (protein, UniProt P06400 1-928)
chain: MPPKTPRKTAATAAAAAAEPPAPPPPPPPEEDPEQDSGPEDLPLVRLEFEETEEPDFTALCQKLKIPDHVRERAWLTWEKVSSVDGVLGGYIQKKKELWGICIFIAAVDLDEMSFTFTELQKNIEISVHKFFNLLKEIDTSTKVDNAMSRLLKKYDVLFALFSKLERTCELIYLTQPSSSISTEINSALVLKVSWITFLLAKGEVLQMEDDLVISFQLMLCVLDYFIKLSPPMLLKEPYKTAVIPINGSPRTPRRGQNRSARIAKQLENDTRIIEVLCKEHECNIDEVKNVYFKNFIPFMNSLGLVTSNGLPEVENLSKRYEEIYLKNKDLDARLFLDHDKTLQTDSIDSFETQRTPRKSNLDEEVNVIPPHTPVRTVMNTIQQLMMILNSASDQPSENLISYFNNCTVNPKESILKRVKDIGYIFKEKFAKAVGQGCVEIGSQRYKLGVRLYYRVMESMLKSEEERLSIQNFSKLLNDNIFHMSLLACALEVVMATYSRSTSQNLDSGTDLSFPWILNVLNLKAFDFYKVIESFIKAEGNLTREMIKHLERCEHRIMESLAWLSDSPLFDLIKQSKDREGPTDHLESACPLNLPLQNNHTAADMYLSPVRSPKKKGSTTRVNSTANAETQATSAFQTQKPLKSTSLSLFYKKVYRLAYLRLNTLCERLLSEHPELEHIIWTLFQHTLQNEYELMRDRHLDQIMMCSMYGICKVKNIDLKFKIIVTAYKDLPHAVQETFKRVLIKEEEYDSIIVFYNSVFMQRLKTNILQYASTRPPTLSPIPHIPRSPYKFPSSPLRIPGGNIYISPLKSPYKISEGLPTPTKMTPRSRILVSIGESFGTSEKFQKINQMVCNSDRVLKRSAEGSNPPKPLKKLRFDIEGSDEADGSKHLPGESKFQQKLAEMTSTRTRMQKQKMNDSMDTSNKEEK
In the case of B1, the binding is reported as “binds”.
